This is one part of the list.

The nature of the assay: Staphylococcus aureus RN4220 growth blockers – two temperatures, LtaS inhibitor project, primary screen (AID 720641). The conditions noted are these: S. aureus RN4220 growth, OD600, 20 h, 42 °C; measured here: growth at 30 °C; stronger effect = lower value.
As to `COc1ccccc1OP(C)(=O)Nc1ccccc1` (centres undefined), the relative growth was 98.9%. Take `CCN1C(=O)N(c2ccccc2)P(=S)(OC)c2cc3c(cc21)OCCO3` (centres undefined): the relative growth is 95.1%. Take `CP(=O)(Nc1ccc(Cl)cc1)Oc1ccccc1` (centres undefined): the relative growth was determined as 94.9%. In the case of `O=C(O)CCC(=O)N=S(c1ccccc1)c1ccccc1.O=[N+]([O-])c1cc([N+](=O)[O-])c(O)c([N+](=O)[O-])c1`, the relative growth was 100%. Consider `CCn1cccc/c1=N\P1(=S)OCCO1`, for which the relative growth was determined as 98.1%.

As to `Cc1cccc(NP(C)(=O)Oc2ccccc2)c1` (centres undefined), the relative growth came out at 92.1%.

In the case of `CCOC(=O)c1ccc(NP(C)(=O)Oc2ccc(OC)cc2)cc1` (centres undefined), the relative growth is 93.1%. Regarding `CP(=O)(NC(=O)Nc1ccccc1)Oc1ccccc1` (centres undefined), the relative growth came to 92.8%. For `COP1(=S)c2c(C)nn(-c3ccccc3)c2N=C(c2ccccc2)N1C1CC1` (centres undefined), the relative growth is 84.9%. With `O=P1(Nc2nccs2)CC=CC1`, the relative growth amounted to 85.7%. For `CN(C)P1(=O)Nc2ccccc2S1` (centres undefined) the value was -0.11%; for `O=C(OC1CN2CCC1CC2)C12CC3CC(CC(C3)C1)C2` (centres undefined), 90.3%.

For `COP1(=S)N=C2c3ccccc3CN2c2cc(N(C)C)ccc21` (centres undefined), the relative growth worked out at 90.2%. `Cc1cc(C)cc(OP(C)(=O)NCc2ccccc2)c1` (centres undefined): the relative growth is 103%.

Take `Nc1nonc1OCCOc1nonc1N`: the relative growth stood at 105%.

In the case of `CC1=Nc2ccc(C(F)(F)F)cc2C1(C)C`, the relative growth was 89.5%.

For `O=C(O)C1(O)c2ccccc2-c2ccccc21`, the relative growth was 95.6%. For `CCOP1(=S)c2c(C)nn(CCC#N)c2N=C(c2ccc(F)cc2)N1C` (centres undefined) the value was 89.1%; for `O=P1(Nc2nc3ccc(Cl)cc3s2)COc2ccccc2OC1`, 57.8%. To `NC(=O)COC(=O)C1(O)c2ccccc2-c2ccccc21` belongs 84.8%; to `Cc1cccc(OCC(=O)OC2CN3CCC2CC3)c1` (centres undefined), 91.9%. In the case of `COc1cc(-n2cnnn2)ccc1-n1cnnn1`, the relative growth came to 86.8%. As for `O=C(OC1CN2CCC1CC2)c1ccc(Cl)cc1` (centres undefined), the relative growth was determined as 90.3%.

On to `Nc1nonc1-c1no[n+]([O-])c1-c1nonc1N`, for which the relative growth came to 91.7%. Regarding `O=P1(Nc2ccccn2)COc2ccccc2OC1`, the relative growth is 90.7%. Regarding `CC1(C)COP(=S)(N(C2=NCCC2)c2ccccc2)OC1`, the relative growth came to 97.1%. As for `Cc1cc(C)cc(OP(C)(=O)Nc2ccc(OC(C)C)cc2)c1` (centres undefined), the relative growth was 83%.

As for `CCSP(=O)(c1ccccc1)c1ccccc1`, the relative growth worked out at 91.5%. Turning to `Cc1nn(CCC#N)c2c1P(=O)(Nc1ccccc1Cl)N(C)C(c1ccc(F)cc1)=N2` (centres undefined), the relative growth was 93%. In the case of `CP(=O)(N1CCOCC1)N1CCOCC1`, the relative growth was 95.5%. `Cc1nn(-c2ccccc2)c2c1P(=O)(N1CCOCC1)N(C)C(c1ccccc1)=N2` (centres undefined): the relative growth amounted to 95%. To `Cc1ccc(C(=O)OC2CN3CCC2CC3)cc1` (centres undefined) belongs 90.1%.

On to `Nc1nonc1OCc1nonc1COc1nonc1N`, for which the relative growth amounted to 82.8%. As for `CC(=O)OC1(C#N)CN2CCC1CC2` (centres undefined), the relative growth was -0.94%. For `C=CCN1CCN(CCOC(=O)C(O)(c2ccccc2)c2ccccc2)CC1` the value was 85.9%. Regarding `Cc1ccccc1NP(C)(=O)Nc1ccccc1C`, the relative growth came out at 83%. To `CC(=O)OC1CN2CCC1C(c1ccccc1)C2` (centres undefined) belongs 91.5%. To `O=P(Nc1nccs1)(c1ccccc1)c1ccccc1` belongs 90.9%.

In the case of `O=C(OCCN1CCN(CCOCc2ccccc2)CC1)C(O)(c1ccccc1)c1ccccc1`, the relative growth is 111%.

Consider `Cc1cc(NC2=NC3C(C(=O)N(C)C(=O)N3C)N2C)n(-c2ccccc2)n1` (centres undefined), for which the relative growth amounted to 89.3%. For `O=P1(Nc2nncs2)C=C(c2ccccc2)SC(c2ccccc2)=C1` the value was 101%; for `O=P1(Nc2nc3ccc(Cl)cc3s2)COc2ccccc2O1` (centres undefined), 75.8%; for `CC1CCC(C(C)C)C(OP(=O)(Nc2nccs2)c2ccccc2)C1` (centres undefined), 79%. To `O=C(OC1CN2CCC1CC2)c1ccccc1` (centres undefined) belongs 83%. For `COc1cc2c(cc1NP(C)(=O)Oc1ccccc1)oc1ccccc12` (centres undefined) the value was 25.4%; for `COC(=O)c1cc2c(s1)N=C(c1ccccc1)N(C)P2(=O)N1CCOCC1` (centres undefined), 93.9%; for `O=C(OCC1CN(Cc2ccccc2)CCO1)C(O)(c1ccccc1)c1ccccc1` (centres undefined), 86.7%. For `O=C(COC(=O)C(O)(c1ccccc1)c1ccccc1)N1CCCCC1`, the relative growth turned out to be 95%. For `CCOP(=Nc1nc2ccccc2n2nnnc12)(OCC)OCC` the value was 88.6%; for `CP(=O)(Nc1ccccn1)Oc1ccccc1` (centres undefined), 91.2%. To `CCOP(OCC)N1CCOCC1` belongs 101%.

Regarding `CP(=O)(Nc1ccc(Cl)cc1)Oc1ccc(F)cc1` (centres undefined), the relative growth amounted to 70.8%. For the compound `CCc1ccc(OP(C)(=O)Nc2cccnc2)cc1` (centres undefined), the relative growth came to 93.3%. For `CCc1nc2c(n1)c1c(non1O)c1c2no[n+]1[O-]` the value was 18.5%.

These data come from PubChem BioAssay AID720641 (ICCB-Longwood Screening Facility, Harvard Medical School, 2013).
